Here are results for 2 molecules from publication PMC11425283.

By UniProt entry, the sequences of proteins in these tests, tags left out. Where a name states a change or a piece, a line headed by the entry shows the natural chain unless it says otherwise.
UniProt P09958: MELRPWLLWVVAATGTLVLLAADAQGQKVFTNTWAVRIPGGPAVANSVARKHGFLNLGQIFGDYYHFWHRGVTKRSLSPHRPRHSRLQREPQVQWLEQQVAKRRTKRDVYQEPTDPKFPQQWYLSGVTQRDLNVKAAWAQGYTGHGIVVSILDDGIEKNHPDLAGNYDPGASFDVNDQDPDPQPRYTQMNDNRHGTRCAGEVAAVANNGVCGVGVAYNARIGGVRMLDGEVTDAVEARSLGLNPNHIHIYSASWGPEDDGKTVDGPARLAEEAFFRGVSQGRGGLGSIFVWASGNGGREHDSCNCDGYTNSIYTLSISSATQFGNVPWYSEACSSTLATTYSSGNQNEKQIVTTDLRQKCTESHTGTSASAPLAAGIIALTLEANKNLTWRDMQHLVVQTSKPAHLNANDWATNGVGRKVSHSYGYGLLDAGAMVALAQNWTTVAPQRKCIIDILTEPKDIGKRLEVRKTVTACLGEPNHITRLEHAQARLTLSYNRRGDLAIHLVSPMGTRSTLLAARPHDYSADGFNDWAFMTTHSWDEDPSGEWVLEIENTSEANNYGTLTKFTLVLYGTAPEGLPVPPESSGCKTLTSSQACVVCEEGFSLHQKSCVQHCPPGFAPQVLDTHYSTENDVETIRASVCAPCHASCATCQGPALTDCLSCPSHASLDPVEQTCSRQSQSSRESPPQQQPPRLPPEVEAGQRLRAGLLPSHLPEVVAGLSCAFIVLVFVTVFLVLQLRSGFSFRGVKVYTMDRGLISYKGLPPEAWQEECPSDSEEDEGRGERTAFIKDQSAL

Results are given in words; binding and its absence hold for the method and conditions named. In cells and extracts the contact can be indirect. Here binding means that the protein was enriched with, or labelled near, the bait; the list need not be complete.

For the assay, the target named is furin (FLAG-tagged, wild type) (human) (UniProt P09958). Briefly: affinity purification with mass spectrometry; furin-FLAG expressed in HEK293T; RIPA lysate; IP with anti-FLAG M2 magnetic beads; SDS-PAGE, Nano LC-MS/MS.

B1: USP33, endogenous (enzyme, UniProt Q8TEY7 1-942)
chain: MTGSNSHITILTLKVLPHFESLGKQEKIPNKMSAFRNHCPHLDSVGEITKEDLIQKSLGTCQDCKVQGPNLWACLENRCSYVGCGESQVDHSTIHSQETKHYLTVNLTTLRVWCYACSKEVFLDRKLGTQPSLPHVRQPHQIQENSVQDFKIPSNTTLKTPLVAVFDDLDIEADEEDELRARGLTGLKNIGNTCYMNAALQALSNCPPLTQFFLDCGGLARTDKKPAICKSYLKLMTELWHKSRPGSVVPTTLFQGIKTVNPTFRGYSQQDAQEFLRCLMDLLHEELKEQVMEVEEDPQTITTEETMEEDKSQSDVDFQSCESCSNSDRAENENGSRCFSEDNNETTMLIQDDENNSEMSKDWQKEKMCNKINKVNSEGEFDKDRDSISETVDLNNQETVKVQIHSRASEYITDVHSNDLSTPQILPSNEGVNPRLSASPPKSGNLWPGLAPPHKKAQSASPKRKKQHKKYRSVISDIFDGTIISSVQCLTCDRVSVTLETFQDLSLPIPGKEDLAKLHSSSHPTSIVKAGSCGEAYAPQGWIAFFMEYVKRFVVSCVPSWFWGPVVTLQDCLAAFFARDELKGDNMYSCEKCKKLRNGVKFCKVQNFPEILCIHLKRFRHELMFSTKISTHVSFPLEGLDLQPFLAKDSPAQIVTYDLLSVICHHGTASSGHYIAYCRNNLNNLWYEFDDQSVTEVSESTVQNAEAYVLFYRKSSEEAQKERRRISNLLNIMEPSLLQFYISRQWLNKFKTFAEPGPISNNDFLCIHGGVPPRKAGYIEDLVLMLPQNIWDNLYSRYGGGPAVNHLYICHTCQIEAEKIEKRRKTELEIFIRLNRAFQKEDSPATFYCISMQWFREWESFVKGKDGDPPGPIDNTKIAVTKCGNVMLRQGADSGQISEETWNFLQSIYGGGPEVILRPPVVHVDPDILQAEEKIEVETRSL
For B1, the binding entry is “binds”.

B2: USP19, endogenous (enzyme, UniProt O94966 1-1318)
chain: MSGGASATGPRRGPPGLEDTTSKKKQKDRANQESKDGDPRKETGSRYVAQAGLEPLASGDPSASASHAAGITGSRHRTRLFFPSSSGSASTPQEEQTKEGACEDPHDLLATPTPELLLDWRQSAEEVIVKLRVGVGPLQLEDVDAAFTDTDCVVRFAGGQQWGGVFYAEIKSSCAKVQTRKGSLLHLTLPKKVPMLTWPSLLVEADEQLCIPPLNSQTCLLGSEENLAPLAGEKAVPPGNDPVSPAMVRSRNPGKDDCAKEEMAVAADAATLVDEPESMVNLAFVKNDSYEKGPDSVVVHVYVKEICRDTSRVLFREQDFTLIFQTRDGNFLRLHPGCGPHTTFRWQVKLRNLIEPEQCTFCFTASRIDICLRKRQSQRWGGLEAPAARVGGAKVAVPTGPTPLDSTPPGGAPHPLTGQEEARAVEKDKSKARSEDTGLDSVATRTPMEHVTPKPETHLASPKPTCMVPPMPHSPVSGDSVEEEEEEEKKVCLPGFTGLVNLGNTCFMNSVIQSLSNTRELRDFFHDRSFEAEINYNNPLGTGGRLAIGFAVLLRALWKGTHHAFQPSKLKAIVASKASQFTGYAQHDAQEFMAFLLDGLHEDLNRIQNKPYTETVDSDGRPDEVVAEEAWQRHKMRNDSFIVDLFQGQYKSKLVCPVCAKVSITFDPFLYLPVPLPQKQKVLPVFYFAREPHSKPIKFLVSVSKENSTASEVLDSLSQSVHVKPENLRLAEVIKNRFHRVFLPSHSLDTVSPSDTLLCFELLSSELAKERVVVLEVQQRPQVPSVPISKCAACQRKQQSEDEKLKRCTRCYRVGYCNQLCQKTHWPDHKGLCRPENIGYPFLVSVPASRLTYARLAQLLEGYARYSVSVFQPPFQPGRMALESQSPGCTTLLSTGSLEAGDSERDPIQPPELQLVTPMAEGDTGLPRVWAAPDRGPVPSTSGISSEMLASGPIEVGSLPAGERVSRPEAAVPGYQHPSEAMNAHTPQFFIYKIDSSNREQRLEDKGDTPLELGDDCSLALVWRNNERLQEFVLVASKELECAEDPGSAGEAARAGHFTLDQCLNLFTRPEVLAPEEAWYCPQCKQHREASKQLLLWRLPNVLIVQLKRFSFRSFIWRDKINDLVEFPVRNLDLSKFCIGQKEEQLPSYDLYAVINHYGGMIGGHYTACARLPNDRSSQRSDVGWRLFDDSTVTTVDESQVVTRYAYVLFYRRRNSPVERPPRAGHSEHHPDLGPAAEAAASQASRIWQELEAEEEPVPEGSGPLGPWGPQDWVGPLPRGPTTPDEGCLRYFVLGTVAALVALVLNVFYPLVSQSRWR
As for B2, the binding entry is reported as “binds”.
